Test results as given in PubChem BioAssay AID2685 (National Center for Advancing Translational Sciences (NCATS), 2010).
The other results are listed elsewhere or left out. The main result of the screen is listed elsewhere. These columns were measured beside it and carry no call. Most of these compounds were active or inconclusive in the main read-out, so they are no random draw. Potencies come from curve fits of mixed quality, noted in brackets.

Test: qHTS Assay for Lipid Storage Modulators in Drosophila S3 Cells;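 for cell number change: cells counted by Cell Tracker Red CMTPX staining in the red channel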
Conditions: BODIPY lipid droplet fluorescence, 18-24 h; for cell number change: measured here: cell count max response, cells fed with added oleic acid
Method in brief: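 Laser-scanning cytometry quantifies lipid droplet accumulation (500–530 nm total intensity; droplet/cell object ratio) in oleic acid-fed (400 uM added) Drosophila S3 cells treated with a concentration series. 20 uM Triacsin C defined 100% inhibition.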

[1] = measured here: lipid fluorescence (Fed channel) AC50, cells fed with added oleic acid
[2] = measured here: cell number channel AC50, cells fed with added oleic acid

Question: What does the source list for `CC(=O)NC(=S)Nc1ccc2oc(=O)ccc2c1`?
Answer: cell number change: 12.9%; AC50 [1]: 2.06 µM [rising, single point]

Question: What does the source list for `O=C(CSc1oc(-c2ccco2)nc1S(=O)(=O)c1ccc(Cl)cc1)NCC1CCCO1` (stereo not drawn)?
Answer: cell number change: 49.2%; AC50 [2]: 0.259 µM [rising, full curve, poor fit]; AC50 [1]: 0.13 µM [rising, full curve, poor fit]

Question: Which AC50 [1] does the source give for `CC(=O)NNC(=O)c1sc(=S)n(C)c1C` here?
Answer: The AC50 was 25.9 µM [falling, single point].

Question: Which cell number change does the source give for `CCCC1=C(C(=O)OCC)C(c2cc(Cl)cc(OC)c2OCC(=O)OCC)NC(=O)N1` (stereo not drawn) here?
Answer: Its cell number change is 7.08%.

Question: And the AC50 [1]?
Answer: The AC50 was 4.11 µM [rising, single point].

Question: With `COc1cc(S(=O)(=O)N2CCN(C(=O)c3ccccc3F)CC2)c(OC)cc1NC(C)=O` as the compound, how does the cell number change read?
Answer: Its cell number change is -17.1%.

Question: Which results are given for `CNC(=S)NNC(=O)c1cc(C(C)(C)C)nn1Cc1ccc(F)cc1`?
Answer: cell number change: 13.3%; AC50 [1]: 0.259 µM [rising, full curve, poor fit]

Question: With `Cc1ccc(S(=O)(=O)N2CCCC2CNC(=O)c2ccc3c(c2)OCO3)cc1` (stereo not drawn) as the compound, how does the cell number change read?
Answer: The cell number change was -25.7%.

Question: What about the AC50 [1] of the same compound?
Answer: The AC50 was 0.0164 µM [falling, full curve, poor fit].

Question: Which AC50 [1] does the source give for `Nc1c(Cl)c(Cl)nc(C(=O)OCC(=O)N2CCCC2=O)c1Cl` here?
Answer: The AC50 was 6.51 µM [rising, single point].

Question: What does the source list for `N=c1c(C(=O)NCC2CCCO2)cc2c(=O)n3ccccc3nc2n1C1CCCC1` (stereo not drawn)?
Answer: cell number change: 2.7%; AC50 [1]: 29.1 µM [rising, single point]

Question: Which results are given for `Cc1c(NC(=S)NC(NC(=O)C(C)C)C(Cl)(Cl)Cl)c(=O)n(-c2ccccc2)n1C` (stereo not drawn)?
Answer: cell number change: -6.8%; AC50 [1]: 0.0326 µM [falling, full curve, poor fit]

Question: Which cell number change does the source give for `CN(CCO)c1cc(N2CCC3(CC2)OCCO3)c2nonc2c1[N+](=O)[O-]` here?
Answer: Its cell number change is -39.9%.

Question: And the AC50 [2]?
Answer: The AC50 was 16.4 µM [falling, partial curve, poor fit].

Question: And the AC50 [1]?
Answer: The AC50 was 4.11 µM [falling, full curve, poor fit].

Question: What does the source list for `CCn1c(/C=C/c2ccc([N+](=O)[O-])o2)nc2ccccc2c1=O`?
Answer: cell number change: -31.7%; AC50 [2]: 2.59 µM [falling, full curve, poor fit]; AC50 [1]: 1.64 µM [falling, partial curve]

Question: With `COc1cc(CNC2CCCC2)cc(Cl)c1OCc1ccc(F)cc1` as the compound, how does the cell number change read?
Answer: Its cell number change is -22.4%.

Question: What about the AC50 [1] of the same compound?
Answer: The AC50 was 1.84 µM [falling, partial curve].

Question: With `CC(=O)c1cc(OC(=O)c2ccncc2)ccc1OC(=O)c1ccncc1` as the compound, how does the cell number change read?
Answer: The cell number change was -104%.

Question: And the AC50 [2]?
Answer: Its AC50 is 29.1 µM [falling, single point].

Question: Which cell number change does the source give for `CC1CC(C)CN(S(=O)(=O)c2ccc(C(=O)N3CC(C)OC(C)C3)cc2)C1` (stereo not drawn) here?
Answer: The cell number change was 7.92%.

Question: And the AC50 [2]?
Answer: The AC50 was 4.11 µM [rising, partial curve].

Question: With `O=c1c2cc(Br)cc(Br)c2oc2nc3n(c(=O)c12)CCCS3` as the compound, how does the cell number change read?
Answer: The cell number change was 1.07%.

Question: With `CCOc1ccc(CNC(=O)CCS(=O)(=O)Cc2ccccc2C)cc1OC` as the compound, how does the cell number change read?
Answer: The cell number change was 1.08%.

Question: And the AC50 [1]?
Answer: Its AC50 is 0.651 µM [falling, full curve].

Question: For `COc1cccc(OC)c1C(=O)OCCCOC(=O)c1c(OC)cccc1OC`, which cell number change is on record?
Answer: Its cell number change is 11.8%.

Question: What about the AC50 [1] of the same compound?
Answer: The AC50 was 29.1 µM [rising, single point].

Question: For `Cc1ccc(NS(=O)(=O)c2c(C)ccc3nsnc23)c([N+](=O)[O-])c1`, which cell number change is on record?
Answer: Its cell number change is -26.1%.

Question: With `CCOC(=O)Cc1nc(-c2ccccc2)n[nH]1` as the compound, how does the cell number change read?
Answer: Its cell number change is 9.78%.

Question: For `COc1ccc(/C=N/NC(=O)c2cc(C34CC5CC(CC(C5)C3)C4)[nH]n2)cc1O`, which cell number change is on record?
Answer: Its cell number change is -41.2%.

Question: And the AC50 [1]?
Answer: The AC50 was 6.51 µM [rising, single point].

Question: For `Cc1cccc(N=Nc2c(O)[nH]c3ccc(Br)cc23)c1`, which cell number change is on record?
Answer: The cell number change was -1.12%.

Question: What about the AC50 [1] of the same compound?
Answer: Its AC50 is 29.1 µM [falling, single point].

Question: Which cell number change does the source give for `CCn1c(-c2ccco2)n[nH]c1=S` here?
Answer: The cell number change was 1.68%.

Question: And the AC50 [2]?
Answer: Its AC50 is 0.206 µM [falling, full curve, poor fit].

Question: And the AC50 [1]?
Answer: The AC50 was 1.46 µM [falling, partial curve].

Question: With `NC(=S)N=Nc1c(O)n(C2OC(=O)c3ccccc32)c2ccccc12` (stereo not drawn) as the compound, how does the AC50 [1] read?
Answer: Its AC50 is 0.164 µM [rising, full curve, poor fit].

Question: Which cell number change does the source give for `CCCN1C(=O)c2ccccc2NC1c1ccc(O)c(OCC)c1` (stereo not drawn) here?
Answer: The cell number change was -15.3%.

Question: And the AC50 [1]?
Answer: The AC50 was 29.1 µM [rising, single point].

Question: For `O=C(Cc1ccc(-c2ccccc2)cc1)NC1CCCC1`, which cell number change is on record?
Answer: The cell number change was 29.5%.

Question: With `O=C(Nc1cc(S(=O)(=O)N2CCOCC2)ccc1Oc1ccc(F)cc1)C1=COCCO1` as the compound, how does the cell number change read?
Answer: The cell number change was 31.7%.

Question: What about the AC50 [2] of the same compound?
Answer: The AC50 was 23.1 µM [rising, single point].

Question: What does the source list for `COc1ccc(NC2=C(NCCO)C(=O)c3ccccc3C2=O)cc1`?
Answer: cell number change: -76.8%; AC50 [2]: 23.1 µM [falling, partial curve]; AC50 [1]: 16.4 µM [falling, partial curve]

Question: Which results are given for `O=C(CN1CCCC1)NC12CC3CC(CC(C3)C1)C2`?
Answer: cell number change: 37.6%; AC50 [2]: 29.1 µM [rising, single point]; AC50 [1]: 6.51 µM [falling, single point]

Question: Which results are given for `COc1ccc2nc(-c3ccccc3)nc(C3CCCCC3)c2c1`?
Answer: cell number change: 1.85%; AC50 [1]: 6.51 µM [falling, partial curve, poor fit]

Question: For `CCCCN(C)C(=O)CCCCn1c(=O)[nH]c2cc(OCC)c(OCC)cc2c1=O`, which cell number change is on record?
Answer: Its cell number change is -26.3%.

Question: And the AC50 [1]?
Answer: The AC50 was 32.6 µM [falling, partial curve, poor fit].

Question: With `Oc1ccccc1N1CCN(CC(O)COCc2ccccc2Cl)CC1` (stereo not drawn) as the compound, how does the cell number change read?
Answer: Its cell number change is 82.6%.

Question: And the AC50 [1]?
Answer: The AC50 was 0.291 µM [falling, partial curve, poor fit].

Question: For `COc1nnc(-c2ccc(C)c(S(=O)(=O)NC(C)C)c2)c2ccccc12`, which cell number change is on record?
Answer: Its cell number change is -32.2%.

Question: What about the AC50 [1] of the same compound?
Answer: The AC50 was 29.1 µM [falling, single point].

Question: What does the source list for `CS(=O)(=O)Nc1cccc(-c2cn3c(n2)SCC3)c1`?
Answer: cell number change: -2.09%; AC50 [1]: 29.1 µM [rising, single point]

Question: With `CC(C)Cc1nc(N2CCN(C(=O)C(C)C)CC2)c(C#N)c2c1CCC2` as the compound, how does the cell number change read?
Answer: Its cell number change is -22.2%.

Question: What about the AC50 [1] of the same compound?
Answer: Its AC50 is 23.1 µM [falling, single point].

Question: Which AC50 [1] does the source give for `Cc1cccc(N2CCN(C(=O)c3cccc(N4C(=O)C5CC=CC(C)C5C4=O)c3)CC2)c1C` (stereo not drawn) here?
Answer: Its AC50 is 6.51 µM [falling, single point].

Question: What does the source list for `CC(=O)c1ccc(Oc2cnccn2)cc1`?
Answer: cell number change: 24.3%; AC50 [1]: 29.1 µM [rising, single point]

Question: Which cell number change does the source give for `Cc1ccc(S(=O)(=O)N(CC(=O)N/N=C/c2ccccc2C(=O)O)c2cc(Cl)cc(Cl)c2)cc1` here?
Answer: The cell number change was -25.4%.

Question: What about the AC50 [1] of the same compound?
Answer: The AC50 was 4.11 µM [rising, partial curve].
